According to paper PMC6667648 (Frontiers in Microbiology, 2019):
Several values for one entry are separate records, joined by “and”; a condition that tells them apart may be missing. Identical values can stand only once.

What was measured:
C. albicans Y-6359 = assay: microbe, parasite or virus in culture; type: cell-based; settings: Candida albicans, Y6359, 24-h incubation, mean of 3 replicates from 2 independent experiments, read-out: Minimum Inhibitory Concentration (MIC)
Procedure: (§1) Strains were obtained from American Type Culture Collection (ATCC, Manassas, VA) or the clinical isolate collection at Trideum Biosciences (Frederick, MD, USA). Bioluminescence strains of P. aeruginosa 19660, transfected with the Xen5 luciferase gene, and S. aureus ATCC® 49525™ (Wright), transfected with the Xen36 luciferase gene, were obtained from Perkin Elmer (Hopkinton, MA).
(§2) A single colony was aseptically picked from an agar overlay and released in 25–30 mL of pre-warmed trypticase soy broth in a culture flask. Each culture was incubated overnight in a 37°C incubator. […] Pathogen growth was measured by absorbance at 600 nm. Four replicas were included for each test agent concentration. […]

C. albicans Y-326 = assay: microbe, parasite or virus in culture; type: cell-based; settings: Candida albicans, Y326, 24-h incubation, mean of 3 replicates from 2 independent experiments, read-out: Minimum Inhibitory Concentration (MIC)
Procedure: as §1, §2

C[C@@H]1[C@H](O)[C@@H](C)/C=C/C=C/C=C/C=C/C=C/C=C/C=C/[C@H](O[C@@H]2O[C@H](C)[C@@H](O)[C@H](N)[C@@H]2O)C[C@@H]2O[C@](O)(C[C@@H](O)C[C@@H](O)[C@H](O)CC[C@@H](O)C[C@@H](O)CC(=O)O[C@H]1C)C[C@H](O)[C@H]2C(=O)O [Amphotericin b, amphotericin B]
MIC (C. albicans Y-6359): 1 µM and 1.08 µg/mL | MIC (C. albicans Y-326): 1 µM and 1.08 µg/mL
